PubChem BioAssay AID1224826 – NIAID, 2016

- Test: 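Genes that change LPS-induced Tnf promoter activity in mouse macrophages when knocked down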 (primary screen)
- Cell system: RAW264.7 G9 macrophages from mouse bearing reporters for p65 (GFP) and the Tnf promoter (mCherry)
- Reagent: siRNA pool against mouse genes, 100 nM
- Time to read-out: 16 h of LPS stimulation, after 2 days of siRNA transfection
- Challenge: bacterial lipopolysaccharide (Salmonella minnesota R595), 10 ng/ml
- Measured: 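Nuclear mCherry signal of the Tnf promoter reporter measured by imaging after background removal, scaled to each plate median and turned into robust z-scores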
- Scale: Tnf reporter robust z-score: higher = stronger Tnf promoter reporter signal after LPS; Tnf reporter intensity: higher = stronger Tnf promoter reporter signal
- Rule for the call: 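a well counts as active at a score of -1.3 or below (Tlr4 knock-down control median) or above 3 (raised signal); controls and wells holding fewer than 50 cells are excluded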
- Meaning of the calls: active = Tnf reporter clearly lowered or raised; inactive = no clear change in Tnf reporter
In all, the deposit lists about 17,000 reagents; below is a random part of them. About 1,110 of them (6.6%) were called active. 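Active means lowered or raised reporter signal; replicate intensities are raw and not normalised per plate.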

| Tnf reporter robust z-score | fewer than 50 cells in well | Tnf reporter intensity, replicate 1 | Tnf reporter intensity, replicate 2 | activity call | gene knocked down |
| --- | --- | --- | --- | --- | --- |
| -0.43 | enough cells in well | 219 | 117 | inactive | Krt17 (keratin 17) |
| -1.08 | enough cells in well | 157 | 115 | inactive | Il10ra (interleukin 10 receptor, alpha) |
| 0.29 | enough cells in well | 276 | 156 | inactive | Il5ra (interleukin 5 receptor, alpha) |
| 0.84 | enough cells in well | 252 | 220 | inactive | Ccdc121rt1 (coiled-coil domain containing 121, retrogene 1) |
| 0.74 | enough cells in well | 444 | 188 | inactive | Shmt1 (serine hydroxymethyltransferase 1 (soluble)) |
| 1.41 | enough cells in well | 221 | 96.8 | inactive | Timm22 (translocase of inner mitochondrial membrane 22) |
| – | fewer than 50 cells per well; well left out of calls | 93.2 | 50.6 | inactive | Ott (ovary testis transcribed) |
| 0.05 | enough cells in well | 268 | 67.3 | inactive | Pdzd11 (PDZ domain containing 11) |
| -0.17 | enough cells in well | 136 | 153 | inactive | Fahd2a (fumarylacetoacetate hydrolase domain containing 2A) |
| 1.67 | enough cells in well | 225 | 271 | inactive | Htatsf1 (HIV TAT specific factor 1) |
| 0.83 | enough cells in well | 327 | 271 | inactive | Myo10 (myosin X) |
| -0.78 | enough cells in well | 106 | 135 | inactive | Stxbp5l (syntaxin binding protein 5-like) |
| 0.7 | enough cells in well | 195 | 219 | inactive | Rpap2 (RNA polymerase II associated protein 2) |
| – | fewer than 50 cells per well; well left out of calls | 230 | 296 | inactive | Or56a4 (olfactory receptor family 56 subfamily A member 4) |
| -0.16 | enough cells in well | 170 | 149 | inactive | Acr (acrosin prepropeptide) |
| 0.1 | enough cells in well | 156 | 247 | inactive | AI593442 (expressed sequence AI593442) |
| 0.41 | enough cells in well | 101 | 125 | inactive | Sprr2g (small proline-rich protein 2G) |
| -0.84 | enough cells in well | 64 | 92.6 | inactive | Or52z13 (olfactory receptor family 52 subfamily Z member 13) |
| -1.43 | enough cells in well | 152 | 35.2 | active | Wdr45b (WD repeat domain 45B) |
| – | fewer than 50 cells per well; well left out of calls | 83.6 | 134 | inactive | Atg101 (autophagy related 101) |
| -0.99 | enough cells in well | 139 | 101 | inactive | Cyp46a1 (cytochrome P450, family 46, subfamily a, polypeptide 1) |
| -0.24 | enough cells in well | 199 | 76.3 | inactive | Spcs1 (signal peptidase complex subunit 1 homolog (S. cerevisiae)) |
| 2.16 | enough cells in well | 255 | 344 | inactive | Gask1a (golgi associated kinase 1A) |
| – | fewer than 50 cells per well; well left out of calls | 41 | 49.6 | inactive | Rbm12 (RNA binding motif protein 12) |
| -0.03 | enough cells in well | 293 | 212 | inactive | Rasa1 (RAS p21 protein activator 1) |
| -1.37 | enough cells in well | 130 | 89.7 | active | Gpnmb (glycoprotein (transmembrane) nmb) |
| 0.69 | enough cells in well | 240 | 408 | inactive | Lpar1 (lysophosphatidic acid receptor 1) |
| -1.67 | enough cells in well | 47.3 | 42.9 | active | V1rb6 (retired record) |
| 0.36 | enough cells in well | 173 | 156 | inactive | Or1s2 (olfactory receptor family 1 subfamily S member 1) |
| -0.6 | enough cells in well | 272 | 54.6 | inactive | P2ry4 (pyrimidinergic receptor P2Y, G-protein coupled, 4) |
| 3 | enough cells in well | 261 | 307 | inactive | Dnajb11 (DnaJ heat shock protein family (Hsp40) member B11) |
| 0.57 | enough cells in well | 230 | 200 | inactive | Cspg5 (chondroitin sulfate proteoglycan 5) |
| 2.13 | enough cells in well | 242 | 321 | inactive | Aacs (acetoacetyl-CoA synthetase) |
| – | fewer than 50 cells per well; well left out of calls | 88 | 77.3 | inactive | Rgl1 (ral guanine nucleotide dissociation stimulator,-like 1) |
| -1.46 | enough cells in well | 68.7 | 61.1 | active | Rpl39 (ribosomal protein L39) |
| 0.03 | enough cells in well | 202 | 181 | inactive | Kcnn3 |
| – | fewer than 50 cells per well; well left out of calls | 113 | 91.9 | inactive | Or5p67 (olfactory receptor family 5 subfamily P member 67) |
| -0.96 | enough cells in well | 160 | 146 | inactive | Col5a3 (collagen, type V, alpha 3) |
| 2.51 | enough cells in well | 189 | 197 | inactive | Tmc3 (transmembrane channel-like gene family 3) |
| 3.11 | enough cells in well | 295 | 144 | active | Tex2 (testis expressed gene 2) |

Quoted from above for reference:
| Tnf reporter robust z-score | fewer than 50 cells in well | Tnf reporter intensity, replicate 1 | Tnf reporter intensity, replicate 2 | activity call | gene knocked down |
| --- | --- | --- | --- | --- | --- |
| 2.16 | enough cells in well | 255 | 344 | inactive | Gask1a (golgi associated kinase 1A) |
| – | fewer than 50 cells per well; well left out of calls | 41 | 49.6 | inactive | Rbm12 (RNA binding motif protein 12) |
| -0.03 | enough cells in well | 293 | 212 | inactive | Rasa1 (RAS p21 protein activator 1) |
| -1.37 | enough cells in well | 130 | 89.7 | active | Gpnmb (glycoprotein (transmembrane) nmb) |
